Experimental data: ChEMBL document CHEMBL1629416, “Developing dual functional allosteric modulators of GABA(A) receptors” (Bioorg Med Chem, 2010)

Target: T1, GABA-A receptor; alpha-3/beta-3/gamma-2 (Homo sapiens, UniProt P18507+P28472+P34903)
T1 sequence (P18507 whole entry): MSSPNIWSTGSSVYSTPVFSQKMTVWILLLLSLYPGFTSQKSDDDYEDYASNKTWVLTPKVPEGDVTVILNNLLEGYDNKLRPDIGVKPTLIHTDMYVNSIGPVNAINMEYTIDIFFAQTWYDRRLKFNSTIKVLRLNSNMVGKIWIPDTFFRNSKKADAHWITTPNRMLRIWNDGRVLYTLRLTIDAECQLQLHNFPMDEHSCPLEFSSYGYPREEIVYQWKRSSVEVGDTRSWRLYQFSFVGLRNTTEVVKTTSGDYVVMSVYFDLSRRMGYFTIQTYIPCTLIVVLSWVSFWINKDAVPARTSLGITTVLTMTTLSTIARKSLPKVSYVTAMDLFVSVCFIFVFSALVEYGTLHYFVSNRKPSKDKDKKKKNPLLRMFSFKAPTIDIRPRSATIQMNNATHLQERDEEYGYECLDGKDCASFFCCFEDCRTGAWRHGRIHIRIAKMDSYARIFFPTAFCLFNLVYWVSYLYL
T1 sequence (P28472 whole entry): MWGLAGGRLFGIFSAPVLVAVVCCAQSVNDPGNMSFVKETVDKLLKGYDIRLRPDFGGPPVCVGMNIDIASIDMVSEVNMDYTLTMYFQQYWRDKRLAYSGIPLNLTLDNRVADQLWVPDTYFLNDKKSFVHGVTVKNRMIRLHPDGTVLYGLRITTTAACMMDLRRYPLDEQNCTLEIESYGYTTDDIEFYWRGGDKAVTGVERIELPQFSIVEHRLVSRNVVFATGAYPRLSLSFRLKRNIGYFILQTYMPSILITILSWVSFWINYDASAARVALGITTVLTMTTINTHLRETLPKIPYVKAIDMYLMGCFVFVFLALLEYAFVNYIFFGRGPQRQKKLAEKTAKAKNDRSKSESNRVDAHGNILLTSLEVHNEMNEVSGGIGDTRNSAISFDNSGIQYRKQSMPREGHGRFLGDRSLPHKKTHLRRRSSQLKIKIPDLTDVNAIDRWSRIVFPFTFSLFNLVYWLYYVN
T1 sequence (P34903 whole entry): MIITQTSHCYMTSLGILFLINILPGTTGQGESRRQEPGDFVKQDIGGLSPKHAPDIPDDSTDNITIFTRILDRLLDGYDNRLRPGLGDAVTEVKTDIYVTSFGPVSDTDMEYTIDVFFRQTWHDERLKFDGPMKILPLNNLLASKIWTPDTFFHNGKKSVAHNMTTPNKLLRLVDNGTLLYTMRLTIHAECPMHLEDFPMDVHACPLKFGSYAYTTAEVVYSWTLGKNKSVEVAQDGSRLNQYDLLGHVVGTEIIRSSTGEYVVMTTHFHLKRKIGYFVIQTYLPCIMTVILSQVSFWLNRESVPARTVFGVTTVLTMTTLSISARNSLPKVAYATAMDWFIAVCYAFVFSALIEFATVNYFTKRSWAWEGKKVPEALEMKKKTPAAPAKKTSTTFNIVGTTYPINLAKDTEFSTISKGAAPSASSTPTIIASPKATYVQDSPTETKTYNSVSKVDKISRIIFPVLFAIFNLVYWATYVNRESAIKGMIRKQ
Assay: Binding affinity to human alpha3beta3gamma2 GABA receptor expressed in Xenopus laevis oocytes
Type: cell-based, Oocyte

Work on `CN1C(=O)CN=C(c2ccccc2)c2cc(Cl)ccc21` [DIAZEPAM] yielded an EC50 of 0.131 µM.
